Data reported in US8877754B2, “Compounds, pharmaceutical compositions and uses thereof” (Boehringer Ingelheim International GmbH, priority 2010, dated 2014).

Chains of the proteins cited; added tags and fusions are not shown. Residues count along the entry.
UniProt O00763, 129-2458 limits assumed: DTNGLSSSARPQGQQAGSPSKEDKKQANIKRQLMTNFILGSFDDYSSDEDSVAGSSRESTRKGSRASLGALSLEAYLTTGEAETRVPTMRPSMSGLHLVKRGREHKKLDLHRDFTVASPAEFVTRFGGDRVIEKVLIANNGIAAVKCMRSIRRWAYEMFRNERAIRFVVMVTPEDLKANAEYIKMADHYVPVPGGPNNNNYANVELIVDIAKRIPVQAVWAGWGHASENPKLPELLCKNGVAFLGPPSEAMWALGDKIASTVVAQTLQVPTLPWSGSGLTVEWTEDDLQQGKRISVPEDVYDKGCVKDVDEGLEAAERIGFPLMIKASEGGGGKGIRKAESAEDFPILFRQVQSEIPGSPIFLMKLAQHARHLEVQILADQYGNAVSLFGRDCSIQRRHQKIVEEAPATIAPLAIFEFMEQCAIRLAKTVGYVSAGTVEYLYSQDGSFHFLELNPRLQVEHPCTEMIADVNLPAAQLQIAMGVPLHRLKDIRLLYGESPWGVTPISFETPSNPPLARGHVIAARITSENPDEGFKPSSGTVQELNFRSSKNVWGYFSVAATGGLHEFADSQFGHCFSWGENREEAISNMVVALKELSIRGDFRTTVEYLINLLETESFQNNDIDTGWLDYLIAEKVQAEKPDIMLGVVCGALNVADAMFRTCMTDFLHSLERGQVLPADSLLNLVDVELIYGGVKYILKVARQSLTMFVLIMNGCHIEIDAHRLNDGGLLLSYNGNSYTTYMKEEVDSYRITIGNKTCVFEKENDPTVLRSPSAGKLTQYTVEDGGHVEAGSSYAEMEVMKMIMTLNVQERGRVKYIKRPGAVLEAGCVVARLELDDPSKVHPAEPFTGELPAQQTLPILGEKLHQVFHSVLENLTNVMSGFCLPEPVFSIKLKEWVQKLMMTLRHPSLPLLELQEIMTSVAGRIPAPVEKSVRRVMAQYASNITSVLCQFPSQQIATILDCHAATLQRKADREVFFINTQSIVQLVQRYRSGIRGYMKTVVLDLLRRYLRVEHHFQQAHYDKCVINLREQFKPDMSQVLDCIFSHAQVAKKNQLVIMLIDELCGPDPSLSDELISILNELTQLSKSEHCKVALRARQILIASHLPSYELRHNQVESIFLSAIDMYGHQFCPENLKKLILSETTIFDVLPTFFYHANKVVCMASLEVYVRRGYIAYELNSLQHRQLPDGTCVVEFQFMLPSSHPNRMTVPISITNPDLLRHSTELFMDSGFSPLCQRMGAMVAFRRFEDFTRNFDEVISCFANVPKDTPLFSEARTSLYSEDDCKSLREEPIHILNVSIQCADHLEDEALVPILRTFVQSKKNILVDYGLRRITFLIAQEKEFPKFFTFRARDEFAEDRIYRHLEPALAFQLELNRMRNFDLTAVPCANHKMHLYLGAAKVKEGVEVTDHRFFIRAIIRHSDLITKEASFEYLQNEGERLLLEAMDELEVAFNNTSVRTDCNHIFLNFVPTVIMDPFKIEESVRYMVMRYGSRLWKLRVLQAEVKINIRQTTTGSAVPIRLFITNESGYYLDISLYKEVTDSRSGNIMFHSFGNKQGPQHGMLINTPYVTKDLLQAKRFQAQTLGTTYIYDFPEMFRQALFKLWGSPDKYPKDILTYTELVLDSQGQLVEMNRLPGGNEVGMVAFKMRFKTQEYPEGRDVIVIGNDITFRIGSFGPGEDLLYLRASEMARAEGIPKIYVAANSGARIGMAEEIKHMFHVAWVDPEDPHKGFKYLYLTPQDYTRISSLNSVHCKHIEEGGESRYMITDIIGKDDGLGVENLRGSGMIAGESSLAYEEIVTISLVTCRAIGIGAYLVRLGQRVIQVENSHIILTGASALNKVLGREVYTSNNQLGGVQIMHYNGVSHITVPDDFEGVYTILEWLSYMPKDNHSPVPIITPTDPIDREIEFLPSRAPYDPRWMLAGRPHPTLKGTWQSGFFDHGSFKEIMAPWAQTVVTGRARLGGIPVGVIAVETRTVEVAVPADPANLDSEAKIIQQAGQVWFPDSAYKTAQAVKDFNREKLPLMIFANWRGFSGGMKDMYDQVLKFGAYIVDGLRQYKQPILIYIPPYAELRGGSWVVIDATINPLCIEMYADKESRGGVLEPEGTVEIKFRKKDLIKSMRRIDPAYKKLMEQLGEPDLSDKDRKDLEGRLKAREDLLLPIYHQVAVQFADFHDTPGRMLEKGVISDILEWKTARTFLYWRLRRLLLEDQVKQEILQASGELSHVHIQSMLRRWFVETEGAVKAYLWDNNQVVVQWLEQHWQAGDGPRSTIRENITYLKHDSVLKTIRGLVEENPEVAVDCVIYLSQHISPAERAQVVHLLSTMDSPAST

Each compound was assayed against human ACC2 (Homo sapiens, UniProt O00763) (assay: ACC2 assay, spectrophotometric 384 well assay (NADH-linked, coupled lactate dehydrogenase/pyruvate kinase)). Settings: hACC2 construct lacking the 128 N-terminal amino acids; 25° C., 340 nm, 15 minutes.
Protocol: Spectrophotometric 384 Well Assay
Malonyl CoA formation by acetyl CoA carboxylases is stoichometrically linked to the consumption of ATP. ACC2 activity is measured in a NADH-linked kinetic method measuring ADP generated during the ACC reaction using a coupled lactate dehydrogenase/pyruvate kinase reaction.
For biological testing, a human ACC2 construct which lacks the 128 amino acids at the N-terminus for increased solubility (nt 385-6966 in Genbank entry AJ575592) is cloned. The protein is then expressed in insect cells using a baculoviral expression system. Protein purification is performed by anion exchange.
All compounds are dissolved in dimethyl sulfoxide (DMSO) to a concentration of 10 mM.
Assay reactions are then carried out in 384-well plates, with hACC2 in an appropriate dilution and at final assay concentrations (f.c.) of 100 mM Tris (pH 7.5), 10 mM trisodium citrate, 25 mM KHCO3, 10 mM MgCl2, 0.5 mg/mL BSA, 3.75 mM reduced L-glutathione, 15 U/mL lactate dehydrogenase, 0.5 mM phosphoenolpyruvate, 15 U/mL pyruvate kinase, compounds at different concentrations at final DMSO concentrations of 1%.
The enzymatic reaction is then started by addition of a mixture of NADH, acetyl Coenzyme A (both 200 μM f.c.) and ATP (500 uM f.c.). The decrease of the optical density (slope S) is then determined at 25° C. at a wavelength of 340 nm over 15 minutes in a spectrophotometric reader.
Each assay microtiter plate contains wells with vehicle instead of compound as controls for the non-inhibited enzyme (100% CTL; ‘HIGH’) and wells without acetyl-CoA as controls for non-specific NADH degradation (0% CTL; ‘LOW’). The slope S is used for calculation of % CTL=(S(compound)−S(‘LOW’))/(S(‘HIGH’)—S(‘LOW’))*100. Compounds will give values between 100% CTL (no inhibition) and 0% CTL (complete inhibition).
For IC50 value determination, the sample slope in the presence of the test compound after subtraction of the low controls (S(compound)−S(‘LOW’)) are used.
An IC50 value is derived from the compound slopes at different dosages after subtraction of the low controls (S(compound)−S(‘LOW’)) by non-linear regression curve fitting (equation y=(A+((B−A)/(1+((C/x)^D))))).

Question: With `CCNC(=O)C(C)c1ccc(C#Cc2cnc(NCc3cccnc3)nc2)cc1` (stereo not shown) as the compound, how does the IC50 read?
Answer: The IC50 was 3 µM.

Question: Which IC50 does the source give for `CCNC(=O)C(C)c1ccc(C#Cc2cnc(N3CCCC3)nc2)cc1` (stereo not shown) here?
Answer: Its IC50 is 3.7 µM.

Question: For `CCNC(=O)C(C)c1ccc(C#Cc2cnc(NCC)nc2)cc1` (stereo not shown), which IC50 is on record?
Answer: The IC50 was 0.28 µM.

Question: Which IC50 does the source give for `CCOc1ccc(C#Cc2ccc(C(C)C(=O)NCC3CC3)cc2)cc1` (stereo not shown) here?
Answer: Its IC50 is 28.7 µM.

The match of structure and compound is tentative.
